{"source": "PubChem BioAssay AID1224826 (NIAID, 2016)", "screen": "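Genes that change LPS-induced Tnf promoter activity in mouse macrophages when knocked down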 (primary screen)", "system": "RAW264.7 G9 macrophages from mouse bearing reporters for p65 (GFP) and the Tnf promoter (mCherry)", "reagent": "siRNA pool against mouse genes, 100 nM", "duration": "16 h of LPS stimulation, after 2 days of siRNA transfection", "challenge": "bacterial lipopolysaccharide (Salmonella minnesota R595), 10 ng/ml", "measured": "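Imaged Tnf reporter mCherry in nuclei, minus background, normalised per plate to the median and expressed as robust z-scores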", "scale": "Tnf reporter robust z-score: higher = stronger Tnf promoter reporter signal after LPS", "active means": "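a well counts as active at a score of -1.3 or below (Tlr4 knock-down control median) or above 3 (raised signal); controls and wells holding fewer than 50 cells are excluded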", "meaning of the calls": "active = Tnf reporter clearly lowered or raised; inactive = no clear change in Tnf reporter", "note": "The deposit covers about 17,000 reagents; this is a random part of them. About 1,110 of them (6.6%) count as active. 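Active means lowered or raised reporter signal; replicate intensities are raw and not normalised per plate.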 Entries without a mark were called inactive. Reagents against one gene are numbered here. Further read-outs or replicates are left out here."}
{"Gene":"Trpm4","reagent":1,"Tnf reporter robust z-score":0.1,"fewer than 50 cells in well":"enough cells in well"}
{"Gene":"Ndufa6","reagent":1,"Tnf reporter robust z-score":-0.33,"fewer than 50 cells in well":"enough cells in well"}
{"Gene":"Pten","reagent":1,"Tnf reporter robust z-score":0.22,"fewer than 50 cells in well":"enough cells in well"}
{"Gene":"Pten","reagent":2,"Tnf reporter robust z-score":-1.2,"fewer than 50 cells in well":"enough cells in well"}
{"Gene":"Prr3","reagent":1,"Tnf reporter robust z-score":0.36,"fewer than 50 cells in well":"enough cells in well"}
{"Gene":"Ints9","reagent":1,"Tnf reporter robust z-score":0.27,"fewer than 50 cells in well":"enough cells in well"}
{"Gene":"Appbp2","reagent":1,"Tnf reporter robust z-score":-0.07,"fewer than 50 cells in well":"enough cells in well"}
{"Gene":"Mrgpre","reagent":1,"Tnf reporter robust z-score":1.25,"fewer than 50 cells in well":"enough cells in well"}
{"Gene":"Slco1c1","reagent":1,"fewer than 50 cells in well":"fewer than 50 cells per well; well left out of calls"}
{"Gene":"Serhl","reagent":1,"Tnf reporter robust z-score":-0.41,"fewer than 50 cells in well":"enough cells in well"}
{"Gene":"Ces2e","reagent":1,"Tnf reporter robust z-score":-0.84,"fewer than 50 cells in well":"enough cells in well"}
{"Gene":"Pbx3","reagent":1,"Tnf reporter robust z-score":-0.95,"fewer than 50 cells in well":"enough cells in well"}
{"Gene":"Rbl2","reagent":1,"Tnf reporter robust z-score":-0.93,"fewer than 50 cells in well":"enough cells in well"}
{"Gene":"Arsk","reagent":1,"Tnf reporter robust z-score":-0.07,"fewer than 50 cells in well":"enough cells in well"}

Just “fewer than 50 cells in well” (2 entries from above):
Ints9 = enough cells in well
Appbp2 = enough cells in well
